Measured values taken from publication doi:10.1101/2021.04.06.438596.
No constants are given. Whether binding was seen depends on the method and setting. Some binding calls cover weakened binding; strength is not graded here.

Molecular target: T1, recombinant human Sept9_i1 (human), Q9UHD8
T1 chain: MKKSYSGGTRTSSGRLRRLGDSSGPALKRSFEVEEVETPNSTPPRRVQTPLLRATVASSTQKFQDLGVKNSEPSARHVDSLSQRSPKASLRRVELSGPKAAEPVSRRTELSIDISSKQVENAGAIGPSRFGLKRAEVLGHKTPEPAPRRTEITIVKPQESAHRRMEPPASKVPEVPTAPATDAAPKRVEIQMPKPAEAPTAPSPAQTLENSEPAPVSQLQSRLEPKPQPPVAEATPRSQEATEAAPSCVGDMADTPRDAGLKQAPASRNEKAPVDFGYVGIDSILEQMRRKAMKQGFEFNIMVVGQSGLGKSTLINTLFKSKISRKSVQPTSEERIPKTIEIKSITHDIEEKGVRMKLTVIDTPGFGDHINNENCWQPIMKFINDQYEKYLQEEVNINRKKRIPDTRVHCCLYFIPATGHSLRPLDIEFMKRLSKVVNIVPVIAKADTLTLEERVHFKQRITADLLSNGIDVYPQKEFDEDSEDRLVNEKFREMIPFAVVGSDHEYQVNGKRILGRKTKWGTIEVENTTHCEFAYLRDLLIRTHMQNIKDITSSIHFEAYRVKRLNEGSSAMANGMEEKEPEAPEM
Test: co-purification of a recombinant complex + native gel or EMSA
Settings: remark: other sources report otherwise

B1: recombinant human Sept9_i1, Q9UHD8 1-586 (protein)
chain: T1 chain
For B1, the binding was “binds”.
